Laboratory results: PubChem BioAssay AID602196 (INSERM, 2012)

- Test: 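Knock-downs that protect lung cancer cells from cisplatin or sensitise them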
- System: human A549 lung cancer cells
- Reagents: siRNA pair against human genes
- Time to read-out: 48 h transfection before cisplatin; time from cisplatin to read-out not stated
- Challenge: cisplatin at a dose killing half of control-siRNA cells; exact dose and duration not given
- Measured: 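Shift in cisplatin death relative to control siRNA, from -50 (all cells die) to +50 (no cells die); siRNAs harmful on their own scored 0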
- Scale: two-siRNA summed score (-2 to +2): higher = both siRNAs protect from cisplatin killing; -2 means both sensitise
- Active means: 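siRNAs harmful alone (LDH or WST-1) get 0; others get +1 for less and -1 for more cisplatin killing; genes are active when the two siRNAs give the same sign, summing to ±2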
- Meaning of the calls: active = both siRNAs shift cisplatin killing the same way; inactive = no consistent shift, or siRNA harmful alone
Shown is an unselected part of about 23,000 deposited reagents. Of all reagents, 455 (2%) were called active. 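Active includes both protection and sensitisation; some change values fall well beyond the stated -50 to +50 range.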 A number with no mark means an inactive call. Further read-outs or replicates are left out here. The record does not give: the amount of reagent.

LOC389331 | two-siRNA summed score (-2 to +2) = 1
ZNF621 (GeneID 285268) | two-siRNA summed score (-2 to +2) = 1
LOC442711 | two-siRNA summed score (-2 to +2) = 0
PCDHGB4 (GeneID 8641) | two-siRNA summed score (-2 to +2) = 0
MOSPD3 (GeneID 64598) | two-siRNA summed score (-2 to +2) = 0
ZNF740 (GeneID 283337) | two-siRNA summed score (-2 to +2) = 0
LOC441937 | two-siRNA summed score (-2 to +2) = 0
RPS29 (GeneID 6235) | two-siRNA summed score (-2 to +2) = 1
CNTN2 (GeneID 6900) | two-siRNA summed score (-2 to +2) = -1
LOC402675 | two-siRNA summed score (-2 to +2) = 0
SLC22A15 (GeneID 55356) | two-siRNA summed score (-2 to +2) = 0
CCDC171 (GeneID 203238) | two-siRNA summed score (-2 to +2) = 0
ZNF140 (GeneID 7699) | two-siRNA summed score (-2 to +2) = 0
CBLN4 (GeneID 140689) | two-siRNA summed score (-2 to +2) = 0
LINC00705 (GeneID 338588) | two-siRNA summed score (-2 to +2) = 0
TRIM33 (GeneID 51592) | two-siRNA summed score (-2 to +2) = -1
DCLRE1A (GeneID 9937) | two-siRNA summed score (-2 to +2) = -2 (active)
LINC00467 (GeneID 84791) | two-siRNA summed score (-2 to +2) = 0
ILDR1 (GeneID 286676) | two-siRNA summed score (-2 to +2) = 0
PCDHAC2 (GeneID 56134) | two-siRNA summed score (-2 to +2) = 0
PGGT1B (GeneID 5229) | two-siRNA summed score (-2 to +2) = -1
CENPM (GeneID 79019) | two-siRNA summed score (-2 to +2) = -1
FAM131B (GeneID 9715) | two-siRNA summed score (-2 to +2) = 0
ADCYAP1 (GeneID 116) | two-siRNA summed score (-2 to +2) = -1
RPA1 (GeneID 6117) | two-siRNA summed score (-2 to +2) = -1
ZNF578 (GeneID 147660) | two-siRNA summed score (-2 to +2) = 0
RPS6KC1 (GeneID 26750) | two-siRNA summed score (-2 to +2) = 0
SPPL2B (GeneID 56928) | two-siRNA summed score (-2 to +2) = 0
LINC00479 (GeneID 150135) | two-siRNA summed score (-2 to +2) = 0
PAK4 (GeneID 10298) | two-siRNA summed score (-2 to +2) = 0
ADGRB1 (GeneID 575) | two-siRNA summed score (-2 to +2) = 0

Hits, among the entries above:
DCLRE1A (GeneID 9937) | two-siRNA summed score (-2 to +2) = -2 (active)
